{"source": "PubChem BioAssay AID504465", "about": "(National Center for Advancing Translational Sciences (NCATS), 2011)", "note": "Among all 2,100 compounds or so, about 210 (10%) were called active. The shares of active, inactive and inconclusive entries below differ from those in the screen. The call rests on the fitted dose curve; in most records, active means well fitted inhibition curve with a large enough effect; inconclusive means small, poorly fitted or top-dose-only effect, or effect the other way; inactive means no such curve, though single readings can be large or run the other way. A potency beside an inconclusive call is a rough fit, not a confirmed value. Potency means the concentration at half of the fitted maximal effect."}
{"assay": "IN Cell qHTS Assay for Inhibitors of the mTORC1 Signaling Pathway in MEF (Tsc2-/-, p53-/-) Cells: Sytravon; further: nearly all actives have a fitted effect of over 60% in size;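 on activity, negative = inhibition: plate controls were DMSO wells for no effect and 7.5 nM rapamycin full pathway inhibition for full effect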", "settings": "phospho-rpS6 immunofluorescence, 24 h; activity, negative = inhibition: at 38.3 µM (top of the series)", "method_in_brief": "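Tsc2-/-, p53-/- MEFs (empty-vector) treated with compound 24 h at 37 degree Celsius, then fixed and stained for phospho-rpS6 Ser235/236 (Alexa-488) plus Hoechst. Reported as % positive cells, thresholds set against 7.5 nM rapamycin and DMSO wells.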"}
{"smiles": "COc1ccc(-c2[nH]nc3nc(-c4cc(OC)c(OC)c(OC)c4)cc(C(=O)O)c23)cc1", "Potency": "inconclusive: 13.1 µM [falling, single point]"}
{"smiles": "COC(=O)CS(=O)(=O)c1nc2ccccc2nc1N1CCCCC1", "Potency": "inconclusive: 26.1 µM [falling, single point]"}
{"smiles": "CC(=O)c1ccc(NC(=O)CC2Nc3cccc4cccc(c34)NC2=O)cc1", "note": "(stereo not drawn)", "activity, negative = inhibition": "inactive: 19%"}
{"smiles": "Cc1cccc(C(=O)Nc2nc(-c3nnn(-c4cc(F)ccc4F)c3C)ns2)c1", "Potency": "inconclusive: 26.1 µM [falling, single point]"}
{"smiles": "CCOc1ccc(C2C(C(=O)Nc3ccc(Cl)cc3)=C(C)Nc3nc(C(F)(F)F)nn32)cc1", "note": "(stereo not drawn)", "Potency": "inconclusive: 13.1 µM [falling, single point]"}
{"smiles": "Oc1ccc(NCc2ccc(OCc3ccccc3Cl)cc2)cc1", "Potency": "inconclusive: 23.3 µM [falling, single point]"}
{"smiles": "Cc1ccc(-c2cc(C(=O)N3CCN(c4ccccc4)CC3)c3ccccc3n2)cc1C", "activity, negative = inhibition": "inactive: -15.7%"}
{"smiles": "CC(C)OCc1cc(CN2CCN(c3ccccc3)CC2)c(O)c2ncccc12", "Potency": "inconclusive: 0.585 µM [falling, full curve, poor fit]"}
{"smiles": "COc1ccc(CNC(=O)C2CCC(CNS(=O)(=O)c3cccs3)CC2)cc1", "note": "(stereo not drawn)", "activity, negative = inhibition": "inactive: 21.6%"}
{"smiles": "CCOc1cc(CNCCSc2nnnn2-c2ccccc2)ccc1OC", "activity, negative = inhibition": "inactive: -2.4%"}
{"smiles": "O=C(Nc1ccc2oc(-c3cccc(Cl)c3Cl)nc2c1)c1cccc(Br)c1", "Potency": "inconclusive: 14.7 µM [falling, single point]"}
{"smiles": "CCCCN1C(=O)C(O)(c2c(C)[nH]c3ccccc23)c2ccccc21", "note": "(stereo not drawn)", "activity, negative = inhibition": "inactive: -20%"}
{"smiles": "COc1ccc(CCNC(=O)CCCn2c(=O)c3ccccc3n(CC(=O)Nc3c(C)cc(C)cc3C)c2=O)cc1OC", "Potency": "inconclusive: 14.7 µM [falling, single point]"}
{"smiles": "Cc1ccc(-n2c(SCc3nc(-c4ccccc4C)no3)nnc2-c2ccncc2)cc1C", "activity, negative = inhibition": "inactive: -7.02%"}
{"smiles": "CCN(c1ccccc1)S(=O)(=O)c1cc(C(=O)Nc2ccc(Br)cc2)ccc1F", "Potency": "inconclusive: 16.5 µM [falling, single point]"}
{"smiles": "COc1ccccc1NC(=O)C1=C(C)Nc2ncnn2C1c1ccc[nH]1", "note": "(stereo not drawn)", "Potency": "inconclusive: 26.1 µM [falling, partial curve, poor fit]"}
{"smiles": "N#Cc1c(C(F)(F)F)cc(-c2cccs2)nc1SCC(=O)Nc1ccc(Cl)cc1", "Potency": "inconclusive: 26.1 µM [falling, single point]"}
{"smiles": "COc1ccc(NC(=O)c2c(C)oc3ccc(O)c(CN4CCCC(C)C4)c23)cc1Cl", "note": "(stereo not drawn)", "Potency": "inconclusive: 23.3 µM [falling, single point]"}
